# From patent publication US12606523B2, “Deuterated organic compounds and uses thereof” (ENGRAIL THERAPEUTICS, INC., priority 2022, dated 2026)
# Protein sequences, listed by entry. Tags and fused reporters are not part of them.
# UniProt P28223, whole entry: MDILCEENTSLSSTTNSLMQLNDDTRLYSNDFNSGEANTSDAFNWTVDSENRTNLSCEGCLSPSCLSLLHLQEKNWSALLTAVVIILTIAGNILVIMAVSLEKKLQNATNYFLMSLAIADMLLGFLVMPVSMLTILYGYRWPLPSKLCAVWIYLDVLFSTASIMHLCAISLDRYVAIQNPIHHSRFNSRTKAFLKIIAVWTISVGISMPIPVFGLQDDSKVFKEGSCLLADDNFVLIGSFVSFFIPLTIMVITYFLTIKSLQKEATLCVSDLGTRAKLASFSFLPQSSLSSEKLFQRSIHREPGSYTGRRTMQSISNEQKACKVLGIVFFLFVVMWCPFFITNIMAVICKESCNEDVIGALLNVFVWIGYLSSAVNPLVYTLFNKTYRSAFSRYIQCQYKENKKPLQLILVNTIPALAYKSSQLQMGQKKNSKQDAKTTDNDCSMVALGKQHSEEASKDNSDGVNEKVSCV
# pEC50, pIC50, pKi: −log10 of the molar value. “And” between values parts separate entries of the source, which are not always exact repeats. Equal values may be shown once.
# How the values were obtained:
# [1] = target: T1, human Serotonin 5-HT2A receptor (Homo sapiens, UniProt P28223); experiment: IP-One HTRF functional assay, antagonist mode; type: cell-based; parameters: expressed in transfected cells; host or cells: CHO-K1
# [2] = target: T1, human Serotonin 5-HT2A receptor; experiment: cell-based; settings: 5-HT2A (agonist mode) EC50, IP-one
# [3] = target: T1, human Serotonin 5-HT2A receptor; experiment: Radioligand binding competition, filtration, [3H]-Ketanserin, CHO-K1 membranes; parameters: expressed in transfected cells; host or cells: CHO-K1
Structure (SMILES),pEC50 [1],pEC50 [2],pIC50 [3],pKi [3]
"CNc1cc(OC)c(C(=O)N[C@H]2CCN(Cc3ccccc3)[C@H]2C)cc1Cl (racemic) [Nemonapride, (±)-cis-N-(1-Benzyl-2-methylpyrrolidin-3-yl)-5-chloro-2-methoxy-4-methylaminobenzamide]",8.19,–,–,–
"[2H]C([2H])([2H])Nc1cc(OC)c(C(=O)N[C@H]2CCN(C([2H])([2H])c3ccccc3)[C@H]2C)cc1Cl [Example A1, 5-Chloro-N-((2S,3S)-1-(dideutero(phenyl)methyl)-2-methylpyrrolidin-3-yl)-2-methoxy-4-(trideuteromethylamino)benzamide]",7.85 and 7.62 and 8.37,8.60 and 8.90 and 8.28 and 8.94,7.79 and 7.80 and 7.77,8.43
"CNc1cc(OC)c(C(=O)N[C@H]2CCN(Cc3ccccc3)[C@H]2C)cc1Cl [cis (S,S) nemonapride, N-[(2S,3S)-1-benzyl-2-methylpyrrolidin-3-yl]-5-chloro-2-methoxy-4-(methylamino)benzamide, reference compound]",8.62,8.55,7.89,8.54
